The values are deposited in ChEMBL (CHEMBL3988442, “University of Dundee, Small-Polar-MMV Screening Library” (2021)).

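Whole-parasite assay of Trypanosoma brucei over 72 hours; the read-out is not stated. Tested at 30 µM. The record gives no direction; compounds that gave an IC50 in retests scored well above the rest, so higher reads as stronger inhibition. Values scatter widely below zero; nearly all retest evidence comes from the higher of the two concentrations used. Of about 64,000 compounds tested this way, about 940 (1.5%) reached 50% or more in at least one test.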

Results are given as percent effect.
How 0% and 100% were set is not recorded. Most values in the screen are low, and negative values occur.
Compounds were drawn at random from those tested, without regard to their results.

compound: CCN(CC)S(=O)(=O)c1cc2c3c(c1)c(C)cc(=O)n3CC2
Percent Effect: -18.61%

compound: O=C(O)C(F)(F)F.[H][C@@]12CN(CC3CC3)C[C@]1([H])[C@@H](OC)CCN2C(=O)c1cc(C)nn1CC
Percent Effect: -181.4%

compound: COC(=O)c1ccc(N(C)C2CCC2)nn1
Percent Effect: -5.326%

compound: CN(Cc1nc(C2CC2)no1)C(=O)CN1CC(c2ccccc2)CC1=O (stereo not given)
Percent Effect: -15.87%

compound: O=C1COc2ccc(S(=O)(=O)NC3CC3)c3c2N1CCC3
Percent Effect: -12.98%

compound: COc1ncccc1C(=O)N1CCCC(n2ccnc2C)C1 (stereo not given)
Percent Effect: -7.34%

compound: O=C(O)C(F)(F)F.O=C(O)C(F)(F)F.[H][C@@]12CN(Cc3ccccn3)C[C@H](C(=O)Nc3cccnc3)[C@]1([H])CCO2
Percent Effect: -15.92%

compound: O=C(CCNS(=O)(=O)c1ccc(F)c(F)c1)NCc1ccoc1
Percent Effect: 15.98%

compound: O=C(NCCc1ccncc1)c1cccnc1OCC(F)(F)F
Percent Effect: -5.349%

compound: CC(C)C1CC(=O)Nc2c1cnn2Cc1ccco1 (stereo not given)
Percent Effect: 5.524%

compound: CC(C)(C)CC(=O)NCCn1nc(C2CCNC2)c2cccnc21.Cl (stereo not given)
Percent Effect: -18.41%

compound: Cc1ccc(CN2CCc3onc(C(=O)NCCN(C)C)c3C2)o1.O=C(O)C(F)(F)F.O=C(O)C(F)(F)F
Percent Effect: 3.175%

compound: CCc1nc(CN(C)CC(c2cccs2)N2CCOCC2)no1 (stereo not given)
Percent Effect: -54.63%

compound: COc1ccc(OC)c(C(C)NS(=O)(=O)c2cnn(C)c2)c1 (stereo not given)
Percent Effect: -20.76%

compound: O=C(NC1CC1)c1nnn(-c2cccc(C(F)(F)F)c2)c1C1CC1
Percent Effect: -6.15%

compound: CNC(=O)NCC1CCC2(CCN(C(=O)c3ccccn3)CC2)CO1.O=C(O)C(F)(F)F (stereo not given)
Percent Effect: -90.18%

compound: Cc1nnc2n1CCN(C(=O)c1cc3cc(F)ccc3[nH]1)C2
Percent Effect: -16.89%

compound: Cc1[nH]ccc1C(=O)N(Cc1ccc(O)cc1)CC1CC1
Percent Effect: -22.55%

compound: CC(C)(C)n1ncc2c(=O)[nH]c(N3CC(O)C3)nc21
Percent Effect: 18.67%

compound: CC(C)c1nc(C2CCCN(C(=O)CCCn3cncn3)C2)no1 (stereo not given)
Percent Effect: 8.639%

compound: [H][C@@]12CC[C@@](O)(c3ccc(C)cn3)[C@]1([H])CN(Cc1ccc(SC)cc1)C2
Percent Effect: 79.51%

compound: COc1ccc(OCc2cc(C(=O)N3CCC(O)CC3)n[nH]2)c(Cl)c1
Percent Effect: 34.72%

compound: COc1ncnc2c1CCN(Cc1cccs1)CC2.O=C(O)C(F)(F)F
Percent Effect: -2.811%

compound: CCOc1ncccc1CNC(=O)c1cc(C)on1
Percent Effect: -16.24%

compound: COc1ccc2c(c1)CCCN2Cc1nc2c(cnn2C)c(=O)[nH]1
Percent Effect: -14.97%

compound: O=C(C1CCCCC1)N1CCC2(CCCN2CC2CC2)CC1.O=C(O)C(F)(F)F
Percent Effect: -18.21%

compound: O=C(c1cc(-c2ccn(CC3CC3)n2)n2ccccc12)N1CCOCC1
Percent Effect: 100.3%

compound: Cc1cc(CC(=O)NC2CCCN(Cc3ccccc3)C2=O)n[nH]1 (stereo not given)
Percent Effect: -34.54%

compound: COc1ccc(C(=O)N(C)Cc2cc(C)on2)c(OC)c1
Percent Effect: -38.29%

compound: Cc1sc(C(=O)NC(C)C)cc1S(=O)(=O)N(C)C
Percent Effect: 6.077%

compound: O=C(NC1CC1)C1CCCN(c2cc(-n3cncn3)ncn2)C1 (stereo not given)
Percent Effect: -29.46%

compound: Cn1cc(CN2CCn3cnc(COCC4CC4)c3C2)cn1.O=C(O)C(F)(F)F
Percent Effect: -21.28%

compound: O=C(CCOc1ccccc1F)N1CCCCC1Cn1cccn1 (stereo not given)
Percent Effect: -15.86%

compound: CCc1nc(NC2CCN(CC(=O)NC3CC3)CC2)c2cnn(C)c2n1
Percent Effect: -39.41%

compound: CCCc1nnc(NCCc2noc(C3CC3)n2)o1
Percent Effect: -38.95%

compound: COc1ccccc1N1CCN(Cc2nccc(OC)c2OC)CC1=O
Percent Effect: 15.85%

compound: CCc1noc(CN(CC(=O)N2CCCCC2)c2ccc(C)cc2)n1
Percent Effect: 16.99%

compound: O=C(O)C1(Cc2cccc(Cl)c2)CCCN(c2ncnc3[nH]ccc23)C1 (stereo not given)
Percent Effect: -54.61%

compound: [H][C@@]12CNC(=O)N1CCN(Cc1cccc(C)n1)C2
Percent Effect: 15.31%

compound: CC(C)C(=O)N1CC2(CCN(CC(C)(C)C)CC2)C1.O=C(O)C(F)(F)F
Percent Effect: -16.43%

compound: Cc1cc2c(cc1C(=O)N1CCC3(CC(=O)NC3=O)C1)OCCO2 (stereo not given)
Percent Effect: -43.26%

compound: CN1CCN(C)C(c2nnc3ccc(C(=O)N4CCOCC4)cn23)C1.O=C(O)C(F)(F)F.O=C(O)C(F)(F)F (stereo not given)
Percent Effect: -2.697%

compound: Cc1c(C(=O)NCC(F)(F)F)nnn1-c1ccccc1Cl
Percent Effect: -37.57%

compound: CCn1cnnc1CNC(=O)c1cc(Cl)ccc1O
Percent Effect: -3.657%

compound: CCS(=O)(=O)N1CCN(CCOC)c2ncccc2C1
Percent Effect: -49.53%

compound: Cc1ccc(C2CCCN2S(=O)(=O)N(C)Cc2nccn2C)o1 (stereo not given)
Percent Effect: -6.284%

compound: CCOC(C)C(=O)Nc1ccc(Sc2nncn2C)c(Cl)c1 (stereo not given)
Percent Effect: -57.09%

compound: Cn1nnc2c1C(COCC1CC1)CN(C(=O)Cc1ccccn1)C2 (stereo not given)
Percent Effect: 5.432%

compound: Cc1nc(C)n(CC2CCCN(CCc3ccncc3)C2)n1 (stereo not given)
Percent Effect: -53.15%

compound: CC(NC(=O)NCCc1cnn(C)c1)c1ccc(Cl)s1 (stereo not given)
Percent Effect: -10.13%

compound: O=C(NCCc1cc2nc(-c3ccncc3)ccn2n1)C1CCOCC1
Percent Effect: 3.142%

compound: CN1CC2(CCCCN2C(=O)c2ccsc2)CC1=O (stereo not given)
Percent Effect: 13.56%

The last 3 entries again:

* CC(NC(=O)NCCc1cnn(C)c1)c1ccc(Cl)s1 (stereo not given) | -10.13%
* O=C(NCCc1cc2nc(-c3ccncc3)ccn2n1)C1CCOCC1 | 3.142%
* CN1CC2(CCCCN2C(=O)c2ccsc2)CC1=O (stereo not given) | 13.56%